{"source": "paper PMC6381796", "key": {"[1]": {"target": "T1, HpaII methyltransferase (M.HpaII) (UniProt P15446)", "T1 sequence (looked up, limits assumed)": "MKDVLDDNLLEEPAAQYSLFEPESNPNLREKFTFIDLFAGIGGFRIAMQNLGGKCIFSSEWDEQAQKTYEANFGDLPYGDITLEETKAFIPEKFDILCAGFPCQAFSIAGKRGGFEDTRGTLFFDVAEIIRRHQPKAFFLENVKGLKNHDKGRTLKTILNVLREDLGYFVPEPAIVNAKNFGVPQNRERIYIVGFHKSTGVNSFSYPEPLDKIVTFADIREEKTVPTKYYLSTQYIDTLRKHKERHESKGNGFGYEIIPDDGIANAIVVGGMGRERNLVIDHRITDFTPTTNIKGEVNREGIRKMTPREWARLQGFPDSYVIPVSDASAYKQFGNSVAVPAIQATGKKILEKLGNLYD", "experiment": "covalent 5FdC trapping; thermal duplex stability on native PAGE", "details": "covalent complex, S-adenosylmethionine in conjugation, duplex resistant to heat up to at least 60 C; 5-fluoro-2'-deoxycytidine at position 9 of strand 1; 5'-phosphate on strand 1; CMG: 25 mM HEPES pH 7.5, 5 mM NaCl, 10 mM Mg acetate, 5 mM DTT, 0.1 mg/ml BSA, loading with 0.1 mM ATPgS at 37 C, fluorescence read at 25 C; commercial protein; label: 5'-Cy5 on strand 2"}, "[2]": {"test_system": "DmCMG helicase (Cdc45-Mcm2-7-GINS) (Drosophila melanogaster)", "experiment": "competition (trap of free helicase, fluorescence unwinding read-out)", "details": "1.5 uM oligo, ATP, CMG not pre-loaded on fork; CMG: 25 mM HEPES pH 7.5, 5 mM NaCl, 10 mM Mg acetate, 5 mM DTT, 0.1 mg/ml BSA, loading with 0.1 mM ATPgS at 37 C, fluorescence read at 25 C; recombinant protein; single-stranded DNA"}}, "note": "For at least one entry, the source does not settle the construct or the ends of the probe. For some assays here: Where a protein sequence is shown, tags need not be part of it."}
{"sequence": "TCAGCATCCGGTACC / GGGTACCGGATGCTGT [Duplex-5FdC (Oligo-Fluo-1 / Oligo-Cy5-5)]", "values": [{"measurement": "binding result", "setting": "[1]", "result": "binds"}]}
{"sequence": "TTTTTTTTTTTTTTTTTTTTTTTTTTTTTTTTTTTTTTTT [Oligo-5 (dT40)]", "values": [{"measurement": "binding result", "setting": "[2]", "result": "binds"}]}
